The values below come from article PMC3744471, “Mitochondria Are the Target Organelle of Differentiation-Inducing Factor-3, an Anti-Tumor Agent Isolated from Dictyostelium Discoideum” (PLoS ONE, 2013).

This data set has as its system HeLa cells. Kind of data set: Fluorescence microscopy: membrane permeability and cellular localization. As to conditions: 20 µM, 0.5 h. The data set is classed as cell-based, human. Here is the method: HeLa cells were cultured for 1–2 days with 2 ml DMEM-FBS in 35-mm tissue culture dishes (Becton Dickinson), washed twice with PBS(–), and then fixed for 15–20 min at room temperature with 2 ml of 3.7% (v/v) formaldehyde in PBS(–). The cells were then washed twice with PBS(–) and used for staining with the fluorescent probes. Alternatively, the fixed cells were treated for 15–20 min with 2 ml of 0.1% (w/v) Triton X-100 in PBS(–), washed twice with PBS(–), and used for staining with the fluorescent probes. […]
For high magnification multi-color imaging, cells were incubated for the appropriate times with 2 ml of DMEM-FBS (HeLa and 3T3-L1) or MEM-α-FBS (LM8) containing various compounds in 35-mm plastic dishes (tissue culture treated µ-Dish; ibidi, Martinsried, Germany). The cells were washed twice with 2 ml of PBS(–), submerged in 2 ml of Hepes buffer (pH 7.4), and observed at room temperature with a Keyence BZ-9000 fluorescence microscope (Osaka, Japan) equipped with an oil immersion 100× lens (CFI Plan Apo VC100XH) and multi-filters that can distinguish four fluorescent probes simultaneously. […]

SMILES strings stand for the structures.

With `CCCCCC(=O)c1c(O)cc(OCCCCNC(=O)CCC2=[N+]3C(=Cc4c(C)cc(C)n4[B-]3(F)F)C=C2)c(Cl)c1O` [BODIPY-DIF-3], the “Cellular staining / localization” value is reported as “localized mainly in mitochondria”.
As for `CCCCNC(=O)CCC1=[N+]2C(=Cc3c(C)cc(C)n3[B-]2(F)F)C=C1` [Bu-BODIPY], the entry is “did not show any notable staining”.
